What all share (experiment): two-hybrid
The target of assay [1] is T1, BD-AtCGL160N, AtCGL160N (29-206 aa) fused to the GAL4 DNA-binding domain (Arabidopsis thaliana) (UniProt O82279).
T1 sequence: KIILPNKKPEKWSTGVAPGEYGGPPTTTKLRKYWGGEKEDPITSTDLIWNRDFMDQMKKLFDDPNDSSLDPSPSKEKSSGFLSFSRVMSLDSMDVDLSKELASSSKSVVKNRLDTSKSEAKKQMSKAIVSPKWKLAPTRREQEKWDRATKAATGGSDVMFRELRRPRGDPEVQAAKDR

Amino acid sequences for entries named in this document (tags omitted).
UniProt P56757: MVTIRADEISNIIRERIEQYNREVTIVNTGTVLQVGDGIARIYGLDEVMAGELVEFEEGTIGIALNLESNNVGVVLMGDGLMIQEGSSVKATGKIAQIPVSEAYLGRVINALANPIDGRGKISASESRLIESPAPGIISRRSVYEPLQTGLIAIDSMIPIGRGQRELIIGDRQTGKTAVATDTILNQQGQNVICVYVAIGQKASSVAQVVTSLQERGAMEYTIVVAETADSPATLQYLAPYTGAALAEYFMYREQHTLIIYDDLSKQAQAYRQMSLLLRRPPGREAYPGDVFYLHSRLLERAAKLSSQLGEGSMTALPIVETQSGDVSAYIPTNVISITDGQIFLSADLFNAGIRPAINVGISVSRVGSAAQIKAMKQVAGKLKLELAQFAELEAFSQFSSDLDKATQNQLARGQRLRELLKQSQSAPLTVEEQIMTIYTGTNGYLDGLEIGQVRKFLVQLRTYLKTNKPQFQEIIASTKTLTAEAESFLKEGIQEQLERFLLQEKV
UniProt P19366: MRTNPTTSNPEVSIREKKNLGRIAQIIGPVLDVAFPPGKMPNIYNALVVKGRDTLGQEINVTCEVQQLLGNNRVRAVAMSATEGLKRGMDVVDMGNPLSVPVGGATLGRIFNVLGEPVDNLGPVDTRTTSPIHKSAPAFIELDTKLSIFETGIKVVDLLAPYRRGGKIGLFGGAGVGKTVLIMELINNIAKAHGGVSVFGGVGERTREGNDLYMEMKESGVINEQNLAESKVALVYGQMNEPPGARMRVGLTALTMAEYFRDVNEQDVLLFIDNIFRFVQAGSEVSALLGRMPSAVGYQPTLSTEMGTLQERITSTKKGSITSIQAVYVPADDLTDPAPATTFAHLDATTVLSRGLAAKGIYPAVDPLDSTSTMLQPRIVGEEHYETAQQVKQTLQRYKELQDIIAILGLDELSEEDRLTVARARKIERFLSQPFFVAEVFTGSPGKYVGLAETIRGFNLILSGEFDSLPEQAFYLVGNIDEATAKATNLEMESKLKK

For assay [2], the target named is T2, BD-AtCGL160N ∆135-160 (Arabidopsis thaliana) (UniProt O82279).
T2 sequence: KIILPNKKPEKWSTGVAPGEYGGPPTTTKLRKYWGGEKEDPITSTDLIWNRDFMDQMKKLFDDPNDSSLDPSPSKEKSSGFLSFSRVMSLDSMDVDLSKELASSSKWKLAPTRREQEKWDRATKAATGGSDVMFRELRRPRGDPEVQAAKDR

Assay [3] addresses T3, BD-AtCGL160N ∆29-74 (Arabidopsis thaliana) (UniProt O82279).
T3 sequence: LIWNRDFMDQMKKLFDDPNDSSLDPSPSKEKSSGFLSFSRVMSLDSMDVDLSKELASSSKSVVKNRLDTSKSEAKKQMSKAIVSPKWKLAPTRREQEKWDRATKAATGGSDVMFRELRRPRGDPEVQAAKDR

Assay [4] addresses T4, BD-AtCGL160N ∆106-134 (Arabidopsis thaliana) (UniProt O82279).
T4 sequence: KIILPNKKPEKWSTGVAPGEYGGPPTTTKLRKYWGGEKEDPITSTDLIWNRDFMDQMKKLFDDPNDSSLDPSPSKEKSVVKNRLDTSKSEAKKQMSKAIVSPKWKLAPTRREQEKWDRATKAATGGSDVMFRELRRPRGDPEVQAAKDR

The target of assay [5] is T5, BD-AtCGL160N ∆161-206 (Arabidopsis thaliana) (UniProt O82279).
T5 sequence: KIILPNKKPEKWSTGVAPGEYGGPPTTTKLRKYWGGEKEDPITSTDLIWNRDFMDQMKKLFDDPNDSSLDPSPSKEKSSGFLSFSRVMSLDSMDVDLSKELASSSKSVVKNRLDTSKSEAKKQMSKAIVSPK

Assay [6] concerns the target T6, BD-AtCGL160N ∆75-105 (Arabidopsis thaliana) (UniProt O82279).
T6 sequence: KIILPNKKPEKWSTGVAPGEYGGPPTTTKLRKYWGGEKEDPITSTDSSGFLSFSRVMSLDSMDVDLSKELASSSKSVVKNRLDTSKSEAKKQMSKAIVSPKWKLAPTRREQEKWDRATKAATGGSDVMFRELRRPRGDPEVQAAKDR

Results on seven molecules are retold here after paper doi:10.1101/2021.10.01.462544.

No constants are given. Whether binding was seen depends on the method and setting. Some results given as binding are weak or reduced against the parent protein; the word gives no strength. Tags and fused reporters may be left off the sequences shown.

For the molecule “AD-CF1-α, CF1-α fused to the GAL4 activation domain (from UniProt P56757 1-507)”, the binding entry in assay [1] is recorded as “no binding”.

As to “AD-CF1-β, CF1-β fused to the GAL4 activation domain (from UniProt P19366 1-498)”, the binding result is reported as “binds” in assay [2]; “no binding” in assay [3]; “binds” in assay [4]; “binds” in assay [5]; “no binding” in assay [6]; “binds” in assay [1].

B1: AD-CF1-δ, CF1-δ fused to the GAL4 activation domain (protein, UniProt Q9SSS9 48-234)
chain: SATAASSYAMALADVAKRNDTMELTVTDIEKLEQVFSDPQVLNFFANPTITVEKKRQVIDDIVKSSSLQSHTSNFLNVLVDANRINIVTEIVKEFELVYNKLTDTQLAEVRSVVKLEAPQLAQIAKQVQKLTGAKNVRVKTVIDASLVAGFTIRYGESGSKLIDMSVKKQLEDIASQLELGEIQLAT
Consider B1, for which the binding entry in assay [1] is on record as “no binding”.

B2: AD-CFO-b', soluble domain of CFO-b' (109-219 aa) fused to the GAL4 activation domain (domain or fragment, UniProt Q42139 109-219)
chain: PLGNFMDQRDASIKEKLASVKDTSTEVKELDEQAAAVMRAARAEIAAALNKMKKETQVEVEEKLAEGRKKVEEELKEALASLESQKEETIKALDSQIAALSEDIVKKVLPS
As to B2, the binding entry in assay [1] is reported as “no binding”.

B3: AD-CFO-b, soluble domain of CFO-b (51-184 aa) fused to the GAL4 activation domain (domain or fragment, UniProt P56759 51-184)
chain: DLLDNRKQRILNTIRNSEELREGAIQQLENARARLRNVETEADKFRVNGYSEIEREKLNLINSTYKTLKQLENYKNETILFEQQRTINQVRERVFQQALQGAIGTLNSCLSNELHLRTINANIGMFGTMKEITD
Regarding B3, in assay [1], the binding entry was “no binding”.

B4: AD-CF1-ε, CF1-ε fused to the GAL4 activation domain (protein, UniProt P09468 1-132)
chain: MTLNLCVLTPNRIVWDSEVKEIILSTNSGQIGVLANHAPIATAVDIGILKIRLANQWLTMALMGGFARIGNNEITILVNDAEKNSDIDPQEAQQTLEIAEANLRKAEGKRQTIEANLALRRARTRVEALNTI
Regarding B4, the binding result in assay [1] is “no binding”.

B5: BD-AtCGL160N, AtCGL160N (29-206 aa) fused to the GAL4 DNA-binding domain (domain or fragment, UniProt O82279 29-206)
chain: KIILPNKKPEKWSTGVAPGEYGGPPTTTKLRKYWGGEKEDPITSTDLIWNRDFMDQMKKLFDDPNDSSLDPSPSKEKSSGFLSFSRVMSLDSMDVDLSKELASSSKSVVKNRLDTSKSEAKKQMSKAIVSPKWKLAPTRREQEKWDRATKAATGGSDVMFRELRRPRGDPEVQAAKDR
With B5, the binding entry in assay [1] was “no binding”.
